According to the supplement of paper PMC10849652:
Some of the results follow.

Chains of the proteins cited; added tags and fusions are not shown. Lines headed by an entry give the natural chain unless they say otherwise; changes in a name come on top.
UniProt O43852: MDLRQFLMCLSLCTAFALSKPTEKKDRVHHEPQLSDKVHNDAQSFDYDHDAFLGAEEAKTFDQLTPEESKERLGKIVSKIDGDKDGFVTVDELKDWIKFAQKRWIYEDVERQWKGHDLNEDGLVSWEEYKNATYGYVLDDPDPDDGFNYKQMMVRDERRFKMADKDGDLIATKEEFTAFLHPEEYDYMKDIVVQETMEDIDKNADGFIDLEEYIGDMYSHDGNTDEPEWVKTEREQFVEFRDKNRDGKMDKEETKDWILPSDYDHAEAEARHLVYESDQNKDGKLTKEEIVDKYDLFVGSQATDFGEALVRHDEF
UniProt Q14444, whole entry, looked up: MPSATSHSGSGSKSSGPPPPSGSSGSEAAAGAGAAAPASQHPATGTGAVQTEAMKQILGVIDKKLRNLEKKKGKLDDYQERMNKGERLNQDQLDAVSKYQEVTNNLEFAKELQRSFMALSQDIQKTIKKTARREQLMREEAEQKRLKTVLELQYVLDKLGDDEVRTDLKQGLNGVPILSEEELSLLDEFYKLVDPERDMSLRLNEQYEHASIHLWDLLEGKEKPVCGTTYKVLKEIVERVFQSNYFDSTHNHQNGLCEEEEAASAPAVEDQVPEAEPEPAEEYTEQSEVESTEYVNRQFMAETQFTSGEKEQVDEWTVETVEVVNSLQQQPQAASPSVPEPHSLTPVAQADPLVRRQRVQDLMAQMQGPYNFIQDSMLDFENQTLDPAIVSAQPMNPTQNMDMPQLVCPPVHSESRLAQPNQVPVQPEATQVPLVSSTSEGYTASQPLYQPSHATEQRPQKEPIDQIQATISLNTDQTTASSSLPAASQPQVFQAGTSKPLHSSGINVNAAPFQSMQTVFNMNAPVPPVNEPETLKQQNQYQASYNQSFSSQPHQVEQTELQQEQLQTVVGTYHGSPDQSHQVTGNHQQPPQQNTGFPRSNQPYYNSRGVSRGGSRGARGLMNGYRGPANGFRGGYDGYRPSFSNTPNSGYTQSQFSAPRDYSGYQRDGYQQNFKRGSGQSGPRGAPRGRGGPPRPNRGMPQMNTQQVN
UniProt P0C0L4: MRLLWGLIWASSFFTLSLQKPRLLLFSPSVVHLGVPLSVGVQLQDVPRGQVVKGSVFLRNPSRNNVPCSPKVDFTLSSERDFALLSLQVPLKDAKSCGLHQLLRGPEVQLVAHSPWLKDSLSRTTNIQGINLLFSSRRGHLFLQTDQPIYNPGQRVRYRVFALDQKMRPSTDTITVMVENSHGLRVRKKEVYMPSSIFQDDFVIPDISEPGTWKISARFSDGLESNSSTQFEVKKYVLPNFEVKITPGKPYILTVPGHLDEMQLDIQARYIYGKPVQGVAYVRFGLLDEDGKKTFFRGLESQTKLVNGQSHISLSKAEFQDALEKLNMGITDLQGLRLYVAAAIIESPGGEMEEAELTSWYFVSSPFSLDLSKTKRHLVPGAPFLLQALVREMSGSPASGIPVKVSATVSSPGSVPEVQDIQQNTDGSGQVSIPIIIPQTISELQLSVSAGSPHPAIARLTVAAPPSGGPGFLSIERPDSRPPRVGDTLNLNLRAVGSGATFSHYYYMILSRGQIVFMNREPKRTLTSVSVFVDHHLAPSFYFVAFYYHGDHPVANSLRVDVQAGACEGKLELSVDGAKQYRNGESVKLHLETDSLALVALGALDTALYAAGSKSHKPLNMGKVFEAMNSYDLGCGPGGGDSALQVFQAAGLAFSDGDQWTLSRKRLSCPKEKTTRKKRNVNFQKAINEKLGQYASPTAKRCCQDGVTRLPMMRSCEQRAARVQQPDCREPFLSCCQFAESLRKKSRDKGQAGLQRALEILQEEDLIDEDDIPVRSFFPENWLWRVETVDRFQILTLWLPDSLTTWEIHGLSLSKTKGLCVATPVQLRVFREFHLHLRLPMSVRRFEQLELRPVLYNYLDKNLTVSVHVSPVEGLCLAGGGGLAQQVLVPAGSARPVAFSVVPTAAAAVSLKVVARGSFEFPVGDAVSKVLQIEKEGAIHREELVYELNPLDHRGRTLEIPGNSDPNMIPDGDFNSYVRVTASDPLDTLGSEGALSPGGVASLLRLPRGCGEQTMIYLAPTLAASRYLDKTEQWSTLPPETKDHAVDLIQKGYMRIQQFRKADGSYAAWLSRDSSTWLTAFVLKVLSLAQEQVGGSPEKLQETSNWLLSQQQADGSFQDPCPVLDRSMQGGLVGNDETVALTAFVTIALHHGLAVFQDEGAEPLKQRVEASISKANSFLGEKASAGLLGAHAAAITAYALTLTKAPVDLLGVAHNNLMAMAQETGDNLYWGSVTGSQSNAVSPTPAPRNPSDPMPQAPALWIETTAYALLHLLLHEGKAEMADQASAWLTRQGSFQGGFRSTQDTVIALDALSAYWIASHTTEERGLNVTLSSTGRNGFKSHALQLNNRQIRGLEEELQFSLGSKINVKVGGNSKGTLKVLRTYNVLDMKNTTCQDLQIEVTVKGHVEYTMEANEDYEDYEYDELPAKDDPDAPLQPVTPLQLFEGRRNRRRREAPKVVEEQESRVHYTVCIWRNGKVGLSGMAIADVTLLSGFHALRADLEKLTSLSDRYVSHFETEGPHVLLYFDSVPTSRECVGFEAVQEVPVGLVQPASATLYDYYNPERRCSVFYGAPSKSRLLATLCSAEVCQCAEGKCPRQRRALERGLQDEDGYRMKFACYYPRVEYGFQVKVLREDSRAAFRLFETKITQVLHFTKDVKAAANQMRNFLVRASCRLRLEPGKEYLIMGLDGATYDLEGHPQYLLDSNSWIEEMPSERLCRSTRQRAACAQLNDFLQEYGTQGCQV
UniProt Q13555: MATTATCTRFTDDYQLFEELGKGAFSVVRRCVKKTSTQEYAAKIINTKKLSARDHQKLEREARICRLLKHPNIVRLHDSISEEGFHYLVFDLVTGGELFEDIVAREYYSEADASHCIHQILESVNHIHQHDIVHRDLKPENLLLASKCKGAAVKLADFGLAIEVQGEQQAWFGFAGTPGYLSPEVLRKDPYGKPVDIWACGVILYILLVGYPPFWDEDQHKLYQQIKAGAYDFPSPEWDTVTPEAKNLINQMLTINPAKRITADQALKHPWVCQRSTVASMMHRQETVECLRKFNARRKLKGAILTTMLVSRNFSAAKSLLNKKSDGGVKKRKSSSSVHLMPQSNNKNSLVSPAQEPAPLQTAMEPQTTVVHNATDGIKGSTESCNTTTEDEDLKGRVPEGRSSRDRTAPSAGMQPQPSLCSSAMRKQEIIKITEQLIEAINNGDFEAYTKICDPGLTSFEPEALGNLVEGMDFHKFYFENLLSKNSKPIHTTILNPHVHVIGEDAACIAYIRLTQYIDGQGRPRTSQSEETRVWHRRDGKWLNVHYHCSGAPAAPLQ
UniProt Q9P1Z2: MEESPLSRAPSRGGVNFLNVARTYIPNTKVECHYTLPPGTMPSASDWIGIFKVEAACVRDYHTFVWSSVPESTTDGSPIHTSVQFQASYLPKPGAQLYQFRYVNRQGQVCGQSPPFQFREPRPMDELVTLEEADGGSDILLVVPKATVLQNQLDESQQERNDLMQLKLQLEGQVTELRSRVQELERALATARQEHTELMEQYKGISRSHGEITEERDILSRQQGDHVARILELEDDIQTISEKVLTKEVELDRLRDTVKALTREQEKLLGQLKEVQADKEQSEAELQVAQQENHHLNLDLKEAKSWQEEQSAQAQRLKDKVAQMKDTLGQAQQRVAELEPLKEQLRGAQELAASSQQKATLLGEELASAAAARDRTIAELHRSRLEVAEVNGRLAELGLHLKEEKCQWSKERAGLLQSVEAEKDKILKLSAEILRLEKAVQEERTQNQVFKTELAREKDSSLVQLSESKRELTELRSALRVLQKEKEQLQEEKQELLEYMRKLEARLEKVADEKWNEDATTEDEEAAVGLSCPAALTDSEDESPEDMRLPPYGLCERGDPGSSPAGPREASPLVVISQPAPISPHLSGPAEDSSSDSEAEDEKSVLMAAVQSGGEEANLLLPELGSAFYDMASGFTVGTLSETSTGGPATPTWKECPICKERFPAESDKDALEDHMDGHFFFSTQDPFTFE
UniProt Q13137: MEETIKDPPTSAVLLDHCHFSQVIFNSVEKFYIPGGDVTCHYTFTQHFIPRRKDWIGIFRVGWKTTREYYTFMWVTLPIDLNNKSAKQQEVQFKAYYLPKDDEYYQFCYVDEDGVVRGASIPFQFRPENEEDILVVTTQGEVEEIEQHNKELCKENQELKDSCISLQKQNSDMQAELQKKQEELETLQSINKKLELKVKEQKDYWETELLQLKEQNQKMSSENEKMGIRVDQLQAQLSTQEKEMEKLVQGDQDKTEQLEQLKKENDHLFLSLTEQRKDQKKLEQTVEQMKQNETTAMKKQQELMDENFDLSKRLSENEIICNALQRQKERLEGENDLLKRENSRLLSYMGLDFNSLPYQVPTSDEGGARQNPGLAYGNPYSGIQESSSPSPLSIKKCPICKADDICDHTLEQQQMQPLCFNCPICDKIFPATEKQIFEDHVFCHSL
UniProt P22676: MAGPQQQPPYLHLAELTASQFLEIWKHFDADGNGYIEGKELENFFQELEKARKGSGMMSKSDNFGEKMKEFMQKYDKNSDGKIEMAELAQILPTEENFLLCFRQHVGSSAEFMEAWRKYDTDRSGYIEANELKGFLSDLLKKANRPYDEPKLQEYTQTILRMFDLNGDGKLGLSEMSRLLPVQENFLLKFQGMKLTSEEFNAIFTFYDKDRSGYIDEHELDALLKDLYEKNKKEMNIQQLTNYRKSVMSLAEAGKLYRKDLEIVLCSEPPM
UniProt Q8IXQ3: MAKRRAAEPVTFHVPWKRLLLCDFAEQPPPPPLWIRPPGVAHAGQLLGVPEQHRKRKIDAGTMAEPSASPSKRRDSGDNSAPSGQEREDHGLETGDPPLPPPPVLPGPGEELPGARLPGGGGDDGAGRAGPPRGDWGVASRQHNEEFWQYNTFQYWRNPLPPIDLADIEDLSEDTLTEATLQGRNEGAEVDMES

What was measured:
Test in all cases: log2 fold change, soluble protein after heating vs DMSO (PISA); higher = thermal stabilisation; K562 lysate, 10 uM; active = over 0.2 and 3.5 SD of the protein, either way, in both replicates (recomputed)
[1] = compound: C1=CC=C(C=C1)[C@H](COC2=CC3=C(C=C2)NC(=O)N3)NC(=O)C4=CC=CN(C4=O)CC5=CC(=C(C=C5)F)F
Method in brief: (§1)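 K562 pellets were dounce-homogenised in PBS pH 7.4 with 1 mM MgCl2, and the crude extract at 1 mg/mL protein was treated with 10 μM compound for 30 min. Aliquots were heated for 3 min across 48°C-58°C, pooled, and brought to 0.5% NP-40 at 4°C; soluble protein was the supernatant after 21,000xg for 90 min. Soluble protein was quantified by TMTpro 16plex LC-MS/MS with channel sums equalised, and reported as log2 fold change in thermal stability against DMSO controls, with values from duplicates.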

[2] = compound: CC1=C(SC2=C1C(=N[C@H](C3=NN=C(N32)C)CC(=O)N)C4=CC=C(C=C4)Cl)C
Method in brief: as §1

[3] = compound: CC1=C2C(=CC=C1)N=C(N(C2=O)C3=CC=CC=C3C)CN4C=NC5=C(N=CN=C54)N
Method in brief: as §1

[4] = compound: Cc1sc2c(c1C)C(c1ccc(Cl)cc1)=N[C@@H](CC(=O)OC(C)(C)C)c1nnc(C)n1-2
Method in brief: as §1

[5] = compound: c1ccc([C@@H]2C[C@H]2NC2CCNCC2)cc1
Method in brief: as §1

Measured: log2 fold change

CABIN1 (UniProt Q9Y6J0)
inactive: [1] -0.008 | [2] -0.11 | [3] 0.035 | [4] -0.003 | [5] -0.067

CALU isoform 4 (UniProt O43852)
inactive: [1] -0.045 | [2] -0.003 | [3] 0.014 | [4] 0.015 | [5] -0.001

CAPRIN1 (UniProt Q14444)
inactive: [1] 0.026 | [2] -0.016 | [3] -0.021 | [4] 0.046 | [5] 0.047

Two successive entries out of the list so far, for reference:
CALU isoform 4 (UniProt O43852)
inactive: [1] -0.045 | [2] -0.003 | [3] 0.014 | [4] 0.015 | [5] -0.001

CAPRIN1 (UniProt Q14444)
inactive: [1] 0.026 | [2] -0.016 | [3] -0.021 | [4] 0.046 | [5] 0.047

(further entries)

C4A (UniProt P0C0L4)
inactive: [1] 0.01 | [2] -0.018 | [3] 0.068 | [4] -0.031 | [5] -0.066

CAMK2G isoform 8 (UniProt Q13555)
inactive: [1] 0.048 | [2] -0.063 | [3] -0.053 | [4] -0.007 | [5] -0.037

CALCOCO1 (UniProt Q9P1Z2)
inactive: [1] -0.006 | [2] 0.031 | [3] 0.042 | [4] 0.029 | [5] 0.053

CALCOCO2 isoform 4 (UniProt Q13137)
inactive: [1] 0.021 | [2] 0.002 | [3] -0.063 | [4] -0.006 | [5] -0.021

CALB2 (UniProt P22676)
inactive: [1] -0.067 | [2] -0.053 | [3] 0.009 | [4] -0.007 | [5] 0.013

C9orf40 (UniProt Q8IXQ3)
inactive: [1] 0.055 | [2] -0.16 | [3] -0.05 | [4] -0.007 | [5] -0.031
